The other results are listed elsewhere or left out.
Biological target: T1, OsSMF1 (Oryza sativa, UniProt Q6ZLB0 1-436)
T1 sequence: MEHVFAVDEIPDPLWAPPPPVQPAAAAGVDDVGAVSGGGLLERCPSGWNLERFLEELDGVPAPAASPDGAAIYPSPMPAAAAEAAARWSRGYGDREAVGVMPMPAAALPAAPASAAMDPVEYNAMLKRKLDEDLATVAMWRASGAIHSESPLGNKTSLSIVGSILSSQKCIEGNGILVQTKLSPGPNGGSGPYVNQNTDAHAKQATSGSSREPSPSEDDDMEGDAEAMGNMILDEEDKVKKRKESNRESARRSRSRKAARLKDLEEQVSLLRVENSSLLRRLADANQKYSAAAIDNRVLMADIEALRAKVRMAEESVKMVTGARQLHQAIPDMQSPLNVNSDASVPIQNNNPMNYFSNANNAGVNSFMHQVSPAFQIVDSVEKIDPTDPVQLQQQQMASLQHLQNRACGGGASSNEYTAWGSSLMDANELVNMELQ
Assay: protein-binding microarray (RPBM); PBS, 2% BSA, 51.3 ng/ul salmon testes DNA, 50 uM zinc acetate, 200 nM TF, 25 C, 1 h; high values mean tight binding
Details: protein: recombinant; tags: N-terminal polyhistidine and DsRed monomer fusion (pET32a); chain copies: 2; label: CyDye5-dUTP incorporated in the synthesized complementary strand; 3' TTTTT single-stranded linker to array surface; dsDNA, one strand shown
In short: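 Transcription factors were made in E. coli BL21-CodonPlus as N-terminal fusions to a polyhistidine tag and DsRed, then purified on Ni–NTA. After primer extension with Cy5-dUTP and blocking with 2% BSA, a custom Agilent array was exposed for 1 h at 25 °C to 200 nM protein in PBS, 2% BSA, salmon testes DNA and 50 µM zinc acetate. Washed arrays were scanned on an Axon 4000B, and the binding signal is per-feature fluorescence intensity in arbitrary units.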

| Sequence | binding signal |
| --- | --- |
| GTGATACTGAAGCGGTACGTGACGGGACTTGTCTCGGAGGCGGAGTCACCTAGTGCAG | 3710 fluorescence intensity (a.u.) |
| TCCTCCGAGACACAATACAAATATATATACAATCACACTCCGGAGTCACCTAGTGCAG | 3950 fluorescence intensity (a.u.) |
| CGTCCGCCTTGATCGCTATTGACCTAGCAACGCACGCGATCGGAGTCACCTAGTGCAG | 3430 fluorescence intensity (a.u.) |
| GGGCGTGGAAGGGCCAGCACACTGGGACACGTGGACGGCTCGGAGTCACCTAGTGCAG | 6910 fluorescence intensity (a.u.) |
| CGCGATCTCCCGGGGCGCTCCCGTATGCCCTTGCGCTGCTCGGAGTCACCTAGTGCAG | 22100 fluorescence intensity (a.u.) |
| AGAGGATGAAATGATGACGTGGTCACCCTGAGTGTGGGGCCGGAGTCACCTAGTGCAG | 24000 fluorescence intensity (a.u.) |
| ATGTGGATGAAAGGAACAGAATGTTCGCCCTTCGTCATGACGGAGTCACCTAGTGCAG | 22800 fluorescence intensity (a.u.) |
| GGGGATCGCGCGAGGACGGGAGGAGTGGTGGCGGTGTGATCGGAGTCACCTAGTGCAG | 3730 fluorescence intensity (a.u.) |
| CAACTGAACTTGCTGCATGTACGCAGTCACTCCCACCCCACGGAGTCACCTAGTGCAG | 3870 fluorescence intensity (a.u.) |
| CGATTTTCCACCGTTCGCATACGTGGACCGCCCGGGCCAACGGAGTCACCTAGTGCAG | 7620 fluorescence intensity (a.u.) |
| GTAACAGTAAACTGGTGAGTATAGCTTGATACATTGAGCACGGAGTCACCTAGTGCAG | 3210 fluorescence intensity (a.u.) |
| ACTTGTCGCTAGCTCGTCATGCTGCTCCTCTTCATTGTGCCGGAGTCACCTAGTGCAG | 3310 fluorescence intensity (a.u.) |
| AGCAGATGATCCTTCACCACGTACGCCAAGTAGCGGACAGCGGAGTCACCTAGTGCAG | 4330 fluorescence intensity (a.u.) |
| AATTTAGGATCCACGTATTACAGATGGTGAGATTGGTAATCGGAGTCACCTAGTGCAG | 4210 fluorescence intensity (a.u.) |
| AAAGCCGAGAGCCCTTTCGGCTGCCCACGTCCCCACTCCTCGGAGTCACCTAGTGCAG | 5130 fluorescence intensity (a.u.) |
| CACACCATCAATCACACGTACGAGCAGTTTCCGCTTCTTTCGGAGTCACCTAGTGCAG | 3370 fluorescence intensity (a.u.) |
| GAATCTAGTAGCTTGCATCCTTTACATCTTCTCATCCTGTCGGAGTCACCTAGTGCAG | 32700 fluorescence intensity (a.u.) |
| GCATATTCTGAAAATTCTCCTGCCCGACCGACGTCAGCGACGGAGTCACCTAGTGCAG | 5750 fluorescence intensity (a.u.) |
| TGGACGCCTAGAAGCTACAAATCCATGGCGGCCATAGATGCGGAGTCACCTAGTGCAG | 26800 fluorescence intensity (a.u.) |
| AATTCTAAACAAGGCTTGGTTACCCAACATTTTGATATGTCGGAGTCACCTAGTGCAG | 14000 fluorescence intensity (a.u.) |
| GCCTGTGCCGTTGGATTGTAATCAACGGCTAGGATGCTTGCGGAGTCACCTAGTGCAG | 3920 fluorescence intensity (a.u.) |

| Sequence | binding signal |
| --- | --- |
| GGTGGTGGGTAGGTGCTGTTCTTATTTGGATCCTAAGACTCGGAGTCACCTAGTGCAG | 4300 fluorescence intensity (a.u.) |
| TGCCATTTTAAACCATACCGTTGTTTGGTAAAATTAACAACGGAGTCACCTAGTGCAG | 31500 fluorescence intensity (a.u.) |
| AGCTCATCCATGCAGCTGTGACGCTGACGCAGATCAACCACGGAGTCACCTAGTGCAG | 5010 fluorescence intensity (a.u.) |
| TATCAGTAAGCTAAATTCTGTGAAGTTTTGGTAATGTTGGCGGAGTCACCTAGTGCAG | 20000 fluorescence intensity (a.u.) |
| CGCGGCCGGCTCTCCCTATACAAGCGCCACGTCGCCGGCGCGGAGTCACCTAGTGCAG | 8560 fluorescence intensity (a.u.) |
| CCGCCGCCTCCGCCGCGAAGCGTACACGTCAGCGAGCGAGCGGAGTCACCTAGTGCAG | 13900 fluorescence intensity (a.u.) |
| CATCTCCAGCCACGTATAAACCCAACCAAACACCCTCCCCCGGAGTCACCTAGTGCAG | 3180 fluorescence intensity (a.u.) |
| GTGATGCCGCTCTCTCTTTCTTGCGTGTACTTCCGGGTGGCGGAGTCACCTAGTGCAG | 4460 fluorescence intensity (a.u.) |
| ATGCTTATTCAGATTTGTTTGGGGACATAAATCCTGATGACGGAGTCACCTAGTGCAG | 3270 fluorescence intensity (a.u.) |
| AATTAGTCCATTAGTGTCATCAGCATGCTTAACAAGAACTCGGAGTCACCTAGTGCAG | 4700 fluorescence intensity (a.u.) |
| TGAAGTAGGTGATCATCAGCATCACTAGTTCAGTACTTAACGGAGTCACCTAGTGCAG | 3280 fluorescence intensity (a.u.) |
| CATCAAGTCGCTGCCGTCGGTGATGACGGTGCGCAGCTGTCGGAGTCACCTAGTGCAG | 4270 fluorescence intensity (a.u.) |
| ACTTTCCATAAGGTTGTAACGCCACCTGTGCAGCCACCAACGGAGTCACCTAGTGCAG | 4050 fluorescence intensity (a.u.) |
| GCGATGCCGGCGGCCGCCACGTCACGCGCCTCGCCATCCACGGAGTCACCTAGTGCAG | 17200 fluorescence intensity (a.u.) |
| ATCTCTTACTACTCGTTTCACTACTAGTATTTGTCAGTTTCGGAGTCACCTAGTGCAG | 6320 fluorescence intensity (a.u.) |
| ATTGACTTATTGTGATGAATTATCTGGTACACGTCTCTAACGGAGTCACCTAGTGCAG | 3390 fluorescence intensity (a.u.) |
| TGCTGCAGCGTGGCGCAGAGCCGATTTGCTGCGCTGTCGCCGGAGTCACCTAGTGCAG | 3970 fluorescence intensity (a.u.) |
| GAAGATTTGCGGGTGAGGATCTATTTTGTACCATTCCCTTCGGAGTCACCTAGTGCAG | 3580 fluorescence intensity (a.u.) |
| AATATATAATGAGTCAAGCGTCATGTCTGTCGCAGTGTAACGGAGTCACCTAGTGCAG | 4800 fluorescence intensity (a.u.) |
| CCCAGACGCCCCATGCTGAATTCACCGGCGGCGAGATGGACGGAGTCACCTAGTGCAG | 4290 fluorescence intensity (a.u.) |
| TGGATCCGGCCCTGCATGTCCGTCCTCGCCGGTGGGCGCTCGGAGTCACCTAGTGCAG | 41400 fluorescence intensity (a.u.) |

Nothing new here: entries from further up.

| Sequence | binding signal |
| --- | --- |
| GGTGGTGGGTAGGTGCTGTTCTTATTTGGATCCTAAGACTCGGAGTCACCTAGTGCAG | 4300 fluorescence intensity (a.u.) |
| TGCCATTTTAAACCATACCGTTGTTTGGTAAAATTAACAACGGAGTCACCTAGTGCAG | 31500 fluorescence intensity (a.u.) |
| AGCTCATCCATGCAGCTGTGACGCTGACGCAGATCAACCACGGAGTCACCTAGTGCAG | 5010 fluorescence intensity (a.u.) |

Source: publication PMC7819943, “Rice protein-binding microarrays: a tool to detect cis-acting elements near promoter regions in rice”
